Assay: general procedure: solution-phase peptide synthesis; HOBT/DIPEA; HATU/DIPEA; DIC; DCC
Conditions: late stage modification step; for final HPLC purity: HPLC (220 nm) and LCMS

Substance | step yield | final HPLC purity
2,3-dibromomethylquinoxaline-6-carboxamidoethoxyethoxypropanoyl-Gly-Lys-PAB-MMAE | 18.18% | HPLC 96%
4,5-dibromomethyltriazol-1-ylacetamidoethoxyethoxypropanoyl-Gly-Lys-PAB-MMAE | 65.86% | HPLC 98%

From EP4759822 (dated 2025)
